Reference: PubChem BioAssay AID504834 (National Center for Advancing Translational Sciences (NCATS), 2011)
In all, about 320,000 compounds went through this assay and about 22,000 (6.9%) were called active. Inconclusive means that the source gave no clear call. Such entries were picked first, then a sample of the others. The call rests on the fitted dose curve; in most records, active means well fitted inhibition curve with a large enough effect; inconclusive means small, poorly fitted or top-dose-only effect, or another doubt; inactive means no such curve, though single readings can be large or run the other way. A potency beside an inconclusive call is a rough fit, not a confirmed value.

Test: Primary qHTS for delayed death inhibitors of the malarial parasite plastid, 96 hour incubation
Settings: P. falciparum luciferase reporter growth; series mostly up to 28.7 µM; activity change, negative = inhibition: at the top concentration
How it was run: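 96 h incubation, 37 C, 5% CO2, of luciferase-reporter P. falciparum-infected RBCs (2% hematocrit, 0.05% parasitemia final) with test compounds; endpoint luminescence.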
On the % scale 0 is the no-effect control and ±100 the full control effect; potency means the concentration at half of the fitted maximal effect.

Compound	Potency	activity change, negative = inhibition
Clc1ccc(CNc2nc(N3CCOCC3)nc(N3CCOCC3)n2)cc1	inconclusive: 14.7 µM [inhibitor, partial curve, poor fit]	–
CC(NC(=O)CC1Nc2ccccc2NC1=O)c1ccccc1 (configuration not stated)	inconclusive: 11.7 µM [inhibitor, single point]	–
CCC(=O)N1CC(=O)Nc2ccc(Cl)cc2C1c1ccc(F)cc1 (configuration not stated)	inconclusive: 0.0415 µM [inhibitor, full curve, poor fit]	–
CC(C)(C)SCCNC(=O)Nc1ccccc1	–	inactive: 29.2%
COc1ccc(NC(=O)c2sc3nc(N4CCOCC4)c4c(c3c2N)CC(C)(C)OC4)cc1	inconclusive: 18.5 µM [inhibitor, single point]	–
O=C1/C(=C/c2cccc(Br)c2)SC(=S)N1/N=C/c1cc([N+](=O)[O-])ccc1O	–	inactive: 41.8%
Cc1ccc(-c2nn(C)c(=O)c3ccccc23)cc1CNC(=O)c1ccco1	inconclusive: 16.5 µM [inhibitor, single point]	–
CN(C)c1ccc(/C=C2\NC(=S)N(Cc3ccccc3)C2=O)cc1	inconclusive: 18.5 µM [inhibitor, single point]	–
CCN(CC)CCn1c(NCc2ccco2)nc2ccccc21	–	inactive: -37.2%
OCCC1CN(C2CCN(c3ccccc3F)CC2)CCN1Cc1ccccc1 (configuration not stated)	–	inactive: -19.2%
C=C(C)COc1ccc(-c2nc(N)ncc2-c2ccc(OC)c(OC)c2)c(O)c1	inconclusive: 11.7 µM [inhibitor, single point]	–
CC(C)CCNC(=O)CCc1nnc(COc2ccccc2)o1	inconclusive: 18.5 µM [inhibitor, single point]	–
O=c1c2ccccc2ncn1/N=C/c1ccccc1	inconclusive: 0.131 µM [inhibitor, full curve, poor fit]	–
CCOc1cc(NC(=S)Nc2cccc(OC)c2)c(OCC)cc1NC(=O)c1ccc(C)cc1	–	inactive: 36.3%
CC(C)CN1C(=O)/C(=C(/C#N)C(=O)NC2CCCCC2)c2ccccc21	inconclusive: 5.22 µM [inhibitor, partial curve, poor fit]	–
COc1ccc(/C=N/NC(=O)c2ccc(N(C)S(=O)(=O)c3ccccc3)cc2)cc1OC	–	inactive: 24.5%
O=C(c1ccco1)N1CCN(C(=O)c2cc3cc([N+](=O)[O-])ccc3oc2=O)CC1	inconclusive: 9.28 µM [inhibitor, partial curve, poor fit]	–
Cc1ccc(S(=O)(=O)NC2(C(F)(F)F)C(=O)Nc3c2c(=O)[nH]c(=O)n3-c2ccccc2)cc1 (configuration not stated)	–	inactive: 10.5%
NS(=O)(=O)c1ccc(N/N=C/C=C/c2ccccc2[N+](=O)[O-])cc1	–	inactive: 59.1%
CC(OC(=O)c1ccc(Cl)c(S(N)(=O)=O)c1)C(=O)NCC1CCCCC1 (configuration not stated)	–	inactive: 0%
O=C(CN1CCCCC1)NNc1nc(-c2ccccc2)c2cc(Br)ccc2n1	inconclusive: 6.57 µM [inhibitor, partial curve, poor fit]	–
O=C(O)c1cccc(N2CCCC2=O)c1	–	inactive: -22%
CC(CCc1ccco1)NC(=O)CCc1nnc2ccc(NCc3ccccc3)nn12 (configuration not stated)	inconclusive: 18.5 µM [inhibitor, single point]	–
COc1ccc(CCNC(=O)CSc2nnc3ccc(-c4cccnc4)nn23)cc1OC	inconclusive: 16.5 µM [inhibitor, single point]	–

Compound	Potency	activity change, negative = inhibition
Cc1nnc2sc(SCC(=O)Nc3ccc(Cl)cc3)nn2c1=O	inconclusive: 4.65 µM [inhibitor, partial curve, poor fit]	–
O=C(NCc1ccco1)/C(=C/c1cccc(C(F)(F)F)c1)c1nc2ccccc2[nH]1	inconclusive: 18.5 µM [inhibitor, single point]	–
N/C(=N\N=C\c1ccc2c(c1)OCO2)c1nonc1N	–	inactive: 411%
O=C1C2CCCCC2C(=O)N1c1ccc(NC2CCCCC2)c([N+](=O)[O-])c1 (configuration not stated)	inconclusive: 18.5 µM [inhibitor, single point]	–
CCOC(=O)[C@H]1[C@H]2COc3ccccc3[C@@H]2N2C(=O)c3cc(Br)ccc3NC(=O)[C@@]12C	active: 6.57 µM	–
CC(=O)c1ccc(NC(=S)N2C(C)CCCC2C)cc1 (configuration not stated)	–	inactive: 51%
Cc1ccc(S(=O)(=O)NCCC(=O)N2CC(C)OC(C)C2)cc1C (configuration not stated)	–	inactive: 4.65%
N#C/C(=C/c1ccc(-c2ccccc2[N+](=O)[O-])o1)C(=O)NCCN1CCCCC1	inconclusive: 18.5 µM [inhibitor, single point]	–
CCOC(=O)c1cc2occc2n1CC(=O)NC1CCC(C)CC1 (configuration not stated)	inconclusive: 13.1 µM [inhibitor, partial curve, poor fit]	–
COc1cc(/C=C2\SC(=S)N(CCC(=O)Nc3ccc(O)cc3)C2=O)cc(OC)c1OC	inconclusive: 18.5 µM [inhibitor, single point]	–
COc1cc(N/N=C/c2ccccc2O)ncn1	inconclusive: 10.4 µM [inhibitor, single point]	–
C=CCOC(=O)C1=C[C@@H](c2ccc(Br)cc2)C[C@@H](OCc2ccc(CO)cc2)O1	–	inactive: 15.3%
COc1ccccc1N1CCN(S(=O)(=O)c2ccc(-c3ccc(=O)[nH]n3)o2)CC1	inconclusive: 1.85 µM [inhibitor, full curve]	–
S=C(NC12CC3CC(CC(C3)C1)C2)N1CCOCC1	inconclusive: 2.62 µM [inhibitor, partial curve, poor fit]	–
O=C(c1cc(-c2ccccc2)nn1-c1ccccc1)N1CCN(S(=O)(=O)c2c(F)cccc2F)CC1	inconclusive: 2.94 µM [inhibitor, single point]	–
O=c1c2cc(NC(=S)NCc3cccnc3)ccc2nc2n1CCCCC2	–	inactive: 3.58%
Cc1cc(Nc2ccccc2)nc(NCc2ccccc2)n1	inconclusive: 0.928 µM [inhibitor, partial curve, poor fit]	–
CCC1CCCCN1C(=O)CSc1nc2c(c(=O)n1C)SC(C)C2 (configuration not stated)	active: 1.47 µM	–
CC(NC(=O)CCl)c1ccc(Cl)c(Cl)c1 (configuration not stated)	active: 3.7 µM	–
CN(C)C(CNC(=O)CCNC(=O)c1ccccc1Cl)c1ccco1 (configuration not stated)	inconclusive: 18.5 µM [inhibitor, single point]	–
O=C(COC(=O)C1CC(=O)N(Cc2ccco2)C1)Nc1ccccc1[N+](=O)[O-] (configuration not stated)	–	inactive: 52.1%
O=c1c([N+](=O)[O-])c(N2CCCC2)c2ccccc2n1-c1ccccc1	inconclusive: 11.7 µM [inhibitor, single point]	–
O=C(N/N=C/c1ccccn1)c1ccc(N/N=C/c2ccccn2)cc1	inconclusive: 18.5 µM [inhibitor, single point]	–
CC(=O)Oc1ccc(C(=O)[C@H]2[C@H]3C(=O)N(c4ccc(C)cc4)C(=O)[C@H]3[C@@H]3C=CC=NN32)cc1	–	inactive: 94.1%

3 entries from above, reformatted:
Compound,Potency,"activity change, negative = inhibition"
Clc1ccc(CNc2nc(N3CCOCC3)nc(N3CCOCC3)n2)cc1,"inconclusive: 14.7 µM [inhibitor, partial curve, poor fit]",–
CC(NC(=O)CC1Nc2ccccc2NC1=O)c1ccccc1 (configuration not stated),"inconclusive: 11.7 µM [inhibitor, single point]",–
CCC(=O)N1CC(=O)Nc2ccc(Cl)cc2C1c1ccc(F)cc1 (configuration not stated),"inconclusive: 0.0415 µM [inhibitor, full curve, poor fit]",–

Additional entries

Compound	Potency	activity change, negative = inhibition
C/C(=N\Nc1ccc([N+](=O)[O-])cc1[N+](=O)[O-])c1ccc(-n2nncc2C(C)(C)C)cc1	inconclusive: 18.5 µM [inhibitor, single point]	–
COc1ccc(/C=C2\N=C(c3ccccc3Cl)NC2=O)cc1	–	inactive: -2.1%
CCCn1c(NC(=O)CCS(=O)(=O)c2ccc(C)cc2)nc2ccccc21	inconclusive: 11.7 µM [inhibitor, single point]	–
CCCc1nc2ccc(Br)cc2c(=O)n1-c1ccc([N+](=O)[O-])c(C(F)(F)F)c1	–	inactive: 33.8%
COc1ccccc1CC(=O)NNC(=O)CN(C)S(=O)(=O)c1ccc(Cl)cc1	–	inactive: 3.15%
CCCCSc1cnn(-c2ccccc2)c(=O)c1SCCCC	active: 11.7 µM	–
COc1ccc(-n2nc(C(=O)NCC(=O)N3CCCC3)c3ccccc3c2=O)cc1Cl	inconclusive: 14.7 µM [inhibitor, single point]	–
Nc1nc(-c2ccc(C(=O)O)cc2)cs1	inconclusive: 2.62 µM [inhibitor, full curve]	–
Cc1ccc(C(=O)Nc2ccncc2)c(C)c1	inconclusive: 18.5 µM [inhibitor, single point]	–
O=C(NC(=S)Nc1cccnc1)c1cccs1	inconclusive: 7.38 µM [inhibitor, partial curve]	–
COC(=O)C1=CN(CC2CCCO2)C=C(C(=O)OC)C1c1cc(OC)c(OC)c(OC)c1 (configuration not stated)	active: 4.15 µM	–
C=C(C)C(=O)Nc1nnc(-c2ccccc2C)s1	–	inactive: -8.73%
Cc1ccc(S(=O)(=O)CCSc2nc(C)cc(C(F)(F)F)c2C#N)cc1	–	inactive: 72.5%
O=C(Nc1cc(C(=O)N2CCN(c3ccccc3O)CC2)ccc1Cl)c1cccs1	inconclusive: 3.7 µM [inhibitor, partial curve, poor fit]	–
Cc1cc(Cl)nc(-n2nc(C)cc2C)n1	–	inactive: -6.41%
CCOC(=O)[C@@H]1[C@H]2COc3ccc(Br)cc3[C@@H]2N2C(=O)N(c3ccc(C(F)(F)F)cc3)C(=O)[C@@]12C	active: 9.28 µM	–
COc1ccccc1CNC(=O)CN1C(=O)NC2(CCCC2)C1=O	–	inactive: -6.18%
CCC(C)[C@H](NC(=O)N1CCN(C)CC1)C(=O)OC (some centres not stated)	–	inactive: 21.2%
O=C(CN1CCc2cc3c(cc2C1)OCCCO3)Nc1ccccc1	–	inactive: 47.6%
CC(=O)c1ccc(N2CCN(C(=O)c3ccc(NC4=NC5CS(=O)(=O)CC5S4)cc3)CC2)cc1 (configuration not stated)	inconclusive: 3.7 µM [inhibitor, partial curve, poor fit]	–
O=C(N[C@@H](Cc1ccccc1)C(=O)CCl)OCc1ccccc1	–	inactive: 23.7%
O=C(Nc1ccccc1)c1cc([N+](=O)[O-])ccc1NC1CCCCC1	inconclusive: 18.5 µM [inhibitor, single point]	–
Cc1ccc(C2C(=O)N(C3CCCC3)CC(=O)N2C2CCCCC2)cc1 (configuration not stated)	inconclusive: 10.4 µM [inhibitor, single point]	–
O=C(c1cc2cc(Cl)ccc2[nH]1)N1CCN(C(=O)c2ccco2)CC1	inconclusive: 18.5 µM [inhibitor, single point]	–
